Laboratory results from PubChem BioAssay AID540276 (National Center for Advancing Translational Sciences (NCATS), 2011).
Out of some 300,000 compounds screened, about 5,400 (1.8%) were called active. The shares of active, inactive and inconclusive entries below differ from those in the screen. The call rests on the fitted dose curve; tested in HEK293 cells. Potencies beside an inconclusive call are fits to weak or partial responses and may not hold up.

test: qHTS for inhibitors of binding or entry into cells for Marburg Virus; conditions: Marburg virus pseudotyped entry inhibition, cell reporter; series mostly up to 37.8 µM
Potency means the concentration at half of the fitted maximal effect.

| SMILES | Potency |
| --- | --- |
| O=C1N=c2ccc(Br)cc2=C1c1sc(=S)n(NS(=O)(=O)c2ccccc2)c1O | inconclusive: 1 µM [inhibitor, full curve, poor fit] |
| Cc1cccc(-n2c(C)cc(/C=C3\NC(=O)NC3=O)c2C)c1 | inconclusive: 17.8 µM [inhibitor, partial curve, poor fit] |
| Cc1ccc2oc(=O)n(Cc3ccccc3Cl)c2c1 | inactive |
| Cc1nn(-c2cc(C)c3ccccc3n2)c2c1CCC2 | inactive |
| CSc1ccc(-c2c(C#N)c(N)nc3c2c(C)nn3-c2ccccc2)cc1 | inconclusive: 6.31 µM [inhibitor, partial curve, poor fit] |
| Brc1ccc(/C=N/Nc2ccccc2)cc1 | inconclusive: 5.62 µM [inhibitor, single point] |
| Cc1ccc(-c2nc(CSCC(=O)NCC3CCCO3)c(C)o2)cc1 (configuration not stated) | inactive |
| COc1cc(/C=N/NP(=S)(c2ccccc2)c2ccccc2)ccc1O | inconclusive: 35.5 µM [inhibitor, single point] |
| CCCc1cc(=O)[nH]c(SCc2cc(=O)oc3cc(C)c(C(C)C)cc23)n1 | inactive |
| CCn1c(C)c(C(C)=O)c(N2CCN(C(c3ccccc3)c3ccccc3)CC2)nc1=S | inconclusive: 35.5 µM [inhibitor, partial curve, poor fit] |
| CCn1c(CNC(=O)c2ccc3c(c2)OCO3)nnc1SCC(=O)Nc1cc(C)ccc1OC | inconclusive: 2.82 µM [activator, partial curve, poor fit] |
| COC(=O)N[C@H](CC(C)=O)c1cccs1 | inconclusive: 1.06 µM [activator, partial curve, poor fit] |
| CCn1cnnc1SCC(=O)Nc1ccccc1C(=O)NC1CC1 | inconclusive: 2.51 µM [activator, partial curve, poor fit] |
| CCOC(=O)C1(CC2CCCCO2)CCN(C(=O)Nc2ccc(C)c(C)c2)CC1 (configuration not stated) | inactive |
| C=CCNC(=O)c1ccc(Cn2c(=S)[nH]c3cc4c(cc3c2=O)OCO4)cc1 | inactive |
| Cc1ccc(C)c(NC(=O)Cc2nc(CNCC(C)C)cs2)c1 | active: 7.94 µM |
| Cc1cccc(C(=O)NC2CC3CCCC(C2)N3C(=O)NC2CCCCC2)c1 (configuration not stated) | inconclusive: 22.4 µM [inhibitor, single point] |
| CN(C)CCCN(C(=O)c1ccc(S(=O)(=O)N2CCc3ccccc32)cc1)c1nc2ccc(F)cc2s1 | inconclusive: 35.5 µM [inhibitor, single point] |
| CC(C)Sc1nnc([C@H](Cc2c[nH]c3ccccc23)NC(=O)OC(C)(C)C)o1 | inconclusive: 29.1 µM [inhibitor, single point] |
| Cc1oc(-c2ccccc2F)nc1CN1CCC(C(=O)NC2CCCCCCC2)CC1 | inconclusive: 35.5 µM [activator, partial curve, poor fit] |
| COc1ccc(OC)c(-c2csc(N3CCC(c4ccccc4)CC3)n2)c1 | inconclusive: 1.26 µM [activator, single point] |

Reformatted as comma-separated lines: part of the list above
SMILES,Potency
COc1cc(/C=N/NP(=S)(c2ccccc2)c2ccccc2)ccc1O,"inconclusive: 35.5 µM [inhibitor, single point]"
CCCc1cc(=O)[nH]c(SCc2cc(=O)oc3cc(C)c(C(C)C)cc23)n1,inactive

(cont.)

| SMILES | Potency |
| --- | --- |
| CCOc1ccc(N(CC(=O)N2CCC(Cc3ccccc3)CC2)S(C)(=O)=O)cc1 | inconclusive: 0.794 µM [inhibitor, full curve, poor fit] |
| O=C(c1ccc(-n2cccn2)cc1)N1CCN(c2ncccc2C(F)(F)F)CC1 | inconclusive: 8.91 µM [inhibitor, partial curve, poor fit] |
| O=C(Nc1cccc(C(F)(F)F)c1)C1CCN(S(=O)(=O)c2cccs2)CC1 | inconclusive: 3.16 µM [inhibitor, single point] |
| Cc1cccc(CCN(CC(=O)NC(C)(C)C)C(=O)c2csnn2)c1 | inconclusive: 5.62 µM [inhibitor, single point] |
| Cc1ccc(COC(=O)c2cc(S(=O)(=O)N3CCCCC3)ccc2N2CCOCC2)cc1 | inconclusive: 12.6 µM [inhibitor, partial curve, poor fit] |
| COc1cc(C(=O)NCC(=O)N/N=C(C)\C=C\c2ccccc2)cc(OC)c1OC | inactive |
| Cc1cc(C(=O)NN=C2CCCC2)c2ccccc2n1 | inconclusive: 17.8 µM [inhibitor, single point] |
| O=C1Nc2ccccc2C12OCCCO2 | inconclusive: 0.158 µM [inhibitor, full curve, poor fit] |
| Cc1cccn2c(=O)c(/C=C(\C#N)C(=O)NC3CCS(=O)(=O)C3)c(N3CCC(C(N)=O)CC3)nc12 (configuration not stated) | inactive |
| COc1ccc(NC(=O)NCc2ccncc2)c(OC)c1 | inconclusive: 0.73 µM [inhibitor, partial curve, poor fit] |
| CC1=CC(=O)C(C(C)C)=C/C1=C(\c1cc(C(C)C)c(OP(=O)(O)O)cc1C)c1ccccc1C(=O)O | inconclusive: 20 µM [inhibitor, partial curve, poor fit] |
| CC(=O)c1ccc(NC(=O)CSc2nnc(N)s2)cc1 | inconclusive: 35.5 µM [activator, single point] |
| CCOc1ccccc1Nc1nnc(SC(C)C(=O)Nc2nc(-c3ccccc3)cs2)s1 (configuration not stated) | active: 3.55 µM |
| CC1=C(C(=O)OC(C)C)C(c2cn(-c3ccccc3)nc2-c2cccs2)NC(=O)N1 (configuration not stated) | inactive |
| O=C1NC(c2ccccc2)=C(c2ccccc2)C1=O | inactive |
| Brc1cc2c(cc1CN1CCN(c3ccccc3)CC1)OCCO2 | inconclusive: 2.82 µM [inhibitor, single point] |
| Cc1ccc(NC(=O)C(=O)c2c(-c3ccccc3)cc3ccccn23)cc1S(=O)(=O)N1CCOCC1 | inconclusive: 14.6 µM [inhibitor, partial curve, poor fit] |
| NS(=O)(=O)c1ccc(NC(=S)NCc2ccco2)cc1 | inactive |
| CN(CCc1ccccn1)c1ncnc2[nH]ncc12 | inconclusive: 15.8 µM [activator, partial curve, poor fit] |
| COc1ccc([C@]23Cc4ccccc4[C@H](O2)C2=C(CC4(CCCCC4)OC2=O)O3)cc1 | inconclusive: 5.31 µM [activator, single point] |
| COc1cc(Cl)c(C)cc1NC(=O)Cn1c(C)c2cnn(-c3ccccc3)c(=O)c2c1C | inactive |
